Test system: MenB antigens 287-953, 936-741 and 961c
Assay: SDS-PAGE of MenB antigen binding to compound-modified aluminum hydroxide adjuvant
Parameters: species or system Neisseria meningitis
Conditions: compound-modified alum, Compound:Alum 1:6 weight ratio, pH 6.5; antigens 287-953, 936-741, 961c

In the case of Cc1ccc2c(c1)nc(N)c1ncc(CCc3ccc(OCCCP(=O)(O)O)cc3C)cc12 [Compound 1, 3-(4-(2-(5-amino-8-methylbenzo[f][1,7]naphthyridin-2-yl)ethyl)-3-methylphenoxy)propylphosphonic acid], the “binding of MenB antigens to aluminum hydroxide adjuvant in presence of bound compound (SDS-PAGE)” value (“binding … of bound compound (SDS-PAGE)” below) is reported as “as effectively”.
Cc1cc(OCCOCCOCCC(F)(F)P(=O)(O)O)ccc1CCc1cnc2c(N)nc3cc(CCC(=O)O)ccc3c2c1 [Compound 17, 3-(5-amino-2-(4-(2-(2-(3,3-difluoro-3-phosphonopropoxy)ethoxy)ethoxy)-2-methylphenethyl)benzo[f][1,7]naphthyridin-8-yl)propanoic acid] was tested, and the “binding … of bound compound (SDS-PAGE)” value was “completely adsorbed”.
For Cc1cc(OCCCC(F)(F)P(=O)(O)O)ccc1CCc1cnc2c(N)nc3cc(CCC(=O)O)ccc3c2c1 [Compound 16, 3-(5-amino-2-(4-(4,4-difluoro-4-phosphonobutoxy)-2-methylphenethyl)benzo[f][1,7]naphthyridin-8-yl)propanoic acid], the “binding … of bound compound (SDS-PAGE)” value was “completely adsorbed”.

Reference: patent publication US9950062B2, “Compounds and compositions as TLR activity modulators” (priority 2009, dated 2018)
